In patent publication US20260007599A1, “TICAGRELOR IV FORMULATIONS FOR USE IN THE TREATMENT OF GRAM-POSITIVE BACTEREMIA” (Hyloris Developments SA, priority 2023, published 2026):
Further values from the same series stand in other lists.

Assay: Solubilization of ticagrelor in unbuffered cyclodextrin stock solutions in milli Q water, appearance on shaking platform;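 note: plus means clear and fully dissolved while plus-minus means clear solution with precipitation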
Format: physicochemical
Description: In a first example two different types of cyclodextrin were used and compared for the solubilization of ticagrelor. An unbuffered stock solution of HPBCD or SBECD was made in water at the target concentrations of 20 w/w %, 25 w/w %, 30 w/w %, 35 w/w % and 40 w/w %. Ticagrelor was added slowly under vortex. Ticagrelor was used at concentrations of 5, 10 or 14 mg/ml in milli Q water. The ticagrelor-cyclodextrin solutions were left on a shaking platform. No sonification or heat was applied.

For `CCCSc1nc(N[C@@H]2C[C@H]2c2ccc(F)c(F)c2)c2nnn([C@@H]3C[C@H](OCCO)[C@@H](O)[C@H]3O)c2n1` [ticagrelor, (1S,2S,3R,5S)-3-{7-[(1R,2S)-2-(3,4-difluorophenyl)cyclopropylamino]5-(propylthio)-3H-(1,2,3)triazolo (4,5-D)pyrimidin-3-yl}-5-(2 hydroxyethoxy) cyclopentane-1,2-diol], the Appearance in cyclodextrin (SBECD 20% w/w, ticagrelor 5 mg/ml, after 5 min of shaking) was “− (translucent solution with precipitation)”, the Appearance in cyclodextrin (SBECD 20% w/w, ticagrelor 5 mg/ml, after 30 min of shaking) was “− (translucent solution with precipitation)” and the Appearance in cyclodextrin (SBECD 20% w/w, ticagrelor 5 mg/ml, after 60 min of shaking) was “− (translucent solution with precipitation)”. The Appearance in cyclodextrin (SBECD 20% w/w, ticagrelor 5 mg/ml, after 3 h of shaking) was “− (translucent solution with precipitation)”, the Appearance in cyclodextrin (SBECD 20% w/w, ticagrelor 5 mg/ml, after overnight shaking) was “− (translucent solution with precipitation)” and the Appearance in cyclodextrin (SBECD 20% w/w, ticagrelor 10 mg/ml, after 5 min of shaking) was “− (translucent solution with precipitation)”. For the same molecule, the Appearance in cyclodextrin (SBECD 20% w/w, ticagrelor 10 mg/ml, after 30 min of shaking) was “− (translucent solution with precipitation)”, the Appearance in cyclodextrin (SBECD 20% w/w, ticagrelor 10 mg/ml, after 60 min of shaking) was “− (translucent solution with precipitation)” and the Appearance in cyclodextrin (SBECD 20% w/w, ticagrelor 10 mg/ml, after 3 h of shaking) was “− (translucent solution with precipitation)”. The Appearance in cyclodextrin (SBECD 20% w/w, ticagrelor 10 mg/ml, after overnight shaking) was “− (translucent solution with precipitation)”, the Appearance in cyclodextrin (SBECD 20% w/w, ticagrelor 14 mg/ml, after 5 min of shaking) was “− (translucent solution with precipitation)” and the Appearance in cyclodextrin (SBECD 20% w/w, ticagrelor 14 mg/ml, after 30 min of shaking) was “− (translucent solution with precipitation)”. The Appearance in cyclodextrin (SBECD 20% w/w, ticagrelor 14 mg/ml, after 60 min of shaking) was “− (translucent solution with precipitation)”, the Appearance in cyclodextrin (SBECD 20% w/w, ticagrelor 14 mg/ml, after 3 h of shaking) was “− (translucent solution with precipitation)” and the Appearance in cyclodextrin (SBECD 20% w/w, ticagrelor 14 mg/ml, after overnight shaking) was “− (translucent solution with precipitation)”. The Appearance in cyclodextrin (SBECD 25% w/w, ticagrelor 5 mg/ml, after 5 min of shaking) was “− (translucent solution with precipitation)”, the Appearance in cyclodextrin (SBECD 25% w/w, ticagrelor 5 mg/ml, after 30 min of shaking) was “− (translucent solution with precipitation)” and the Appearance in cyclodextrin (SBECD 25% w/w, ticagrelor 5 mg/ml, after 60 min of shaking) was “− (translucent solution with precipitation)”. The Appearance in cyclodextrin (SBECD 25% w/w, ticagrelor 5 mg/ml, after 3 h of shaking) was “− (translucent solution with precipitation)”, the Appearance in cyclodextrin (SBECD 25% w/w, ticagrelor 5 mg/ml, after overnight shaking) was “− (translucent solution with precipitation)” and the Appearance in cyclodextrin (SBECD 25% w/w, ticagrelor 10 mg/ml, after 5 min of shaking) was “− (translucent solution with precipitation)”. For the same molecule, the Appearance in cyclodextrin (SBECD 25% w/w, ticagrelor 10 mg/ml, after 30 min of shaking) was “− (translucent solution with precipitation)”, the Appearance in cyclodextrin (SBECD 25% w/w, ticagrelor 10 mg/ml, after 60 min of shaking) was “− (translucent solution with precipitation)” and the Appearance in cyclodextrin (SBECD 25% w/w, ticagrelor 10 mg/ml, after 3 h of shaking) was “− (translucent solution with precipitation)”. For the same molecule, the Appearance in cyclodextrin (SBECD 25% w/w, ticagrelor 10 mg/ml, after overnight shaking) was “− (translucent solution with precipitation)”, the Appearance in cyclodextrin (SBECD 25% w/w, ticagrelor 14 mg/ml, after 5 min of shaking) was “− (translucent solution with precipitation)” and the Appearance in cyclodextrin (SBECD 25% w/w, ticagrelor 14 mg/ml, after 30 min of shaking) was “− (translucent solution with precipitation)”. For the same molecule, the Appearance in cyclodextrin (SBECD 25% w/w, ticagrelor 14 mg/ml, after 60 min of shaking) was “− (translucent solution with precipitation)”, the Appearance in cyclodextrin (SBECD 25% w/w, ticagrelor 14 mg/ml, after 3 h of shaking) was “− (translucent solution with precipitation)” and the Appearance in cyclodextrin (SBECD 25% w/w, ticagrelor 14 mg/ml, after overnight shaking) was “− (translucent solution with precipitation)”. The Appearance in cyclodextrin (SBECD 30% w/w, ticagrelor 5 mg/ml, after 5 min of shaking) was “− (translucent solution with precipitation)”, the Appearance in cyclodextrin (SBECD 30% w/w, ticagrelor 5 mg/ml, after 30 min of shaking) was “− (translucent solution with precipitation)” and the Appearance in cyclodextrin (SBECD 30% w/w, ticagrelor 5 mg/ml, after 60 min of shaking) was “− (translucent solution with precipitation)”. The Appearance in cyclodextrin (SBECD 30% w/w, ticagrelor 5 mg/ml, after 3 h of shaking) was “− (translucent solution with precipitation)”, the Appearance in cyclodextrin (SBECD 30% w/w, ticagrelor 5 mg/ml, after overnight shaking) was “− (translucent solution with precipitation)” and the Appearance in cyclodextrin (SBECD 30% w/w, ticagrelor 10 mg/ml, after 5 min of shaking) was “− (translucent solution with precipitation)”. The Appearance in cyclodextrin (SBECD 30% w/w, ticagrelor 10 mg/ml, after 30 min of shaking) was “− (translucent solution with precipitation)”, the Appearance in cyclodextrin (SBECD 30% w/w, ticagrelor 10 mg/ml, after 60 min of shaking) was “− (translucent solution with precipitation)” and the Appearance in cyclodextrin (SBECD 30% w/w, ticagrelor 10 mg/ml, after 3 h of shaking) was “− (translucent solution with precipitation)”. The Appearance in cyclodextrin (SBECD 30% w/w, ticagrelor 10 mg/ml, after overnight shaking) was “− (translucent solution with precipitation)”, the Appearance in cyclodextrin (SBECD 30% w/w, ticagrelor 14 mg/ml, after 5 min of shaking) was “− (translucent solution with precipitation)” and the Appearance in cyclodextrin (SBECD 30% w/w, ticagrelor 14 mg/ml, after 30 min of shaking) was “− (translucent solution with precipitation)”. For the same molecule, the Appearance in cyclodextrin (SBECD 30% w/w, ticagrelor 14 mg/ml, after 60 min of shaking) was “− (translucent solution with precipitation)”, the Appearance in cyclodextrin (SBECD 30% w/w, ticagrelor 14 mg/ml, after 3 h of shaking) was “− (translucent solution with precipitation)” and the Appearance in cyclodextrin (SBECD 30% w/w, ticagrelor 14 mg/ml, after overnight shaking) was “− (translucent solution with precipitation)”. For the same molecule, the Appearance in cyclodextrin (SBECD 40% w/w, ticagrelor 5 mg/ml, after 5 min of shaking) was “− (translucent solution with precipitation)”, the Appearance in cyclodextrin (SBECD 40% w/w, ticagrelor 5 mg/ml, after 30 min of shaking) was “+/−” and the Appearance in cyclodextrin (SBECD 40% w/w, ticagrelor 5 mg/ml, after 60 min of shaking) was “+/−”. The Appearance in cyclodextrin (SBECD 40% w/w, ticagrelor 5 mg/ml, after 3 h of shaking) was “+/−” and the Appearance in cyclodextrin (SBECD 40% w/w, ticagrelor 5 mg/ml, after overnight shaking) was “+ (clear, appeared completely dissolved)”.
